The text below walks through data of publication PMC12053449.

Protein sequences, listed by entry. Tags and fused reporters are not part of them.
UniProt P29590: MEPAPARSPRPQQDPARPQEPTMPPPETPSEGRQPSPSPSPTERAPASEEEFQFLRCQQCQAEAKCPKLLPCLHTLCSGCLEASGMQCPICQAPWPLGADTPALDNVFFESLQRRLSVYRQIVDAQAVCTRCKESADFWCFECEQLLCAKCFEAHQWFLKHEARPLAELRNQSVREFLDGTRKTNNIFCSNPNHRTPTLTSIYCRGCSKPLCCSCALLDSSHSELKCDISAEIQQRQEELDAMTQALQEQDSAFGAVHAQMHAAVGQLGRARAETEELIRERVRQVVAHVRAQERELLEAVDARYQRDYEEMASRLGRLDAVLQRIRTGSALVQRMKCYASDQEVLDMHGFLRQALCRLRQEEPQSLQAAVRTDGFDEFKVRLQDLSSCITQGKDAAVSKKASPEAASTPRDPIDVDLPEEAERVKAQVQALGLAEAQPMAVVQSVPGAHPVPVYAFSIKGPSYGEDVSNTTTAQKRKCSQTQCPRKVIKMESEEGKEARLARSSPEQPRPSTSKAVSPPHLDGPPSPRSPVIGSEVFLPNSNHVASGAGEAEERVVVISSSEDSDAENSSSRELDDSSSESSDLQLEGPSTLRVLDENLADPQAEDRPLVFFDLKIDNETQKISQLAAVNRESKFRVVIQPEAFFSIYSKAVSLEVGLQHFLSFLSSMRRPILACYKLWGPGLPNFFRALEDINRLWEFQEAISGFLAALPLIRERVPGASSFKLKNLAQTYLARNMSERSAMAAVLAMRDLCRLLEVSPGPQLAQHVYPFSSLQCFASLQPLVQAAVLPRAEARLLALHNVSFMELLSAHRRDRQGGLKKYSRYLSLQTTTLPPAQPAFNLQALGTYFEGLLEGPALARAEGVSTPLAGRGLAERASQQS

The target of this assay is Flag-tagged wild-type PML (UniProt P29590). Kind of assay: native gel or EMSA; native polyacrylamide gel electrophoresis of WT and domain truncated PML; M monomer, D dimer, P polymer (Fig. 2F). For orientation: In EMSA bound probe runs differently from free probe, usually more slowly.

Results are given in words; binding and its absence hold for the method and conditions named. Some binding calls cover weakened binding; strength is not graded here.

Take “Flag-tagged wild-type PML (from UniProt P29590 1-882)”: the binding entry was “binds”.
